Laboratory results from ChEMBL document CHEMBL1629563, “Pharmacokinetic and safety evaluation of BILR 355, a second-generation nonnucleoside reverse transcriptase inhibitor, in healthy volunteers” (Antimicrob Agents Chemother, 2008).
The source gives many values for each of these; only a part stands here.

Columns and labels:
Details in all cases: in vivo
Homo sapiens [1] = assay: Toxicity in healthy human assessed as occurrence of vomiting at 1 mg, po administered as single dose relative to control; type: organism-based
Homo sapiens [2] = assay: Toxicity in healthy human assessed as occurrence of vomiting at 5 mg, po administered as single dose relative to control; type: organism-based
Homo sapiens [3] = assay: Toxicity in healthy human assessed as occurrence of vomiting at 25 mg, po administered as single dose relative to control; type: organism-based
Homo sapiens [4] = assay: Toxicity in healthy human assessed as occurrence of vomiting at 100 mg, po administered as single dose relative to control; type: organism-based
Homo sapiens [5] = assay: Toxicity in healthy human assessed as occurrence of migraine at 75 mg, po administered as single dose relative to control; type: organism-based
Homo sapiens [6] = assay: Toxicity in healthy human assessed as occurrence of increase in alanine aminotransferase level at 5 mg, po administered as single dose relative to control; type: organism-based
Homo sapiens [7] = assay: Toxicity in healthy human assessed as occurrence of maculopapular rash at 12.5 mg, po administered as single dose relative to control; type: organism-based
Homo sapiens [8] = assay: Toxicity in healthy human assessed as occurrence of maculopapular rash at 25 mg, po administered as single dose relative to control; type: organism-based
Homo sapiens [9] = assay: Toxicity in healthy human assessed as occurrence of maculopapular rash at 50 mg, po administered as single dose relative to control; type: organism-based
Homo sapiens [10] = assay: Toxicity in healthy human assessed as occurrence of constipation at 12.5 mg, po administered as single dose relative to control; type: organism-based
Homo sapiens [11] = assay: Toxicity in healthy human assessed as occurrence of constipation at 75 mg, po administered as single dose relative to control; type: organism-based
Homo sapiens [12] = assay: Toxicity in healthy human assessed as occurrence of constipation at 100 mg, po administered as single dose relative to control; type: organism-based
Homo sapiens [13] = assay: Toxicity in healthy human assessed as occurrence of neurological eyelid disorder at 12.5 mg, po administered as single dose relative to control; type: organism-based
Homo sapiens [14] = assay: Toxicity in healthy human assessed as occurrence of neurological eyelid disorder at 50 mg, po administered as single dose relative to control; type: organism-based
Homo sapiens [15] = assay: Toxicity in healthy human assessed as occurrence of flatulence at 5 mg, po administered as single dose relative to control; type: organism-based
Homo sapiens [16] = assay: Toxicity in healthy human assessed as occurrence of flatulence at 25 mg, po administered as single dose relative to control; type: organism-based
Homo sapiens [17] = assay: Toxicity in healthy human assessed as occurrence of flatulence at 75 mg, po administered as single dose relative to control; type: organism-based
Homo sapiens [18] = assay: Toxicity in healthy human assessed as occurrence of flatulence at 100 mg, po administered as single dose relative to control; type: organism-based
Homo sapiens [19] = assay: Toxicity in healthy human assessed as occurrence of herpes simplex at 1 mg, po administered as single dose relative to control; type: organism-based
Homo sapiens [20] = assay: Toxicity in healthy human assessed as occurrence of herpes simplex at 25 mg, po administered as single dose relative to control; type: organism-based
Homo sapiens [21] = assay: Toxicity in healthy human assessed as occurrence of aphthous stomatitis at 5 mg, po administered as single dose coadministered with 100 mg of ritonavir; type: organism-based
Homo sapiens [22] = assay: Toxicity in healthy human assessed as occurrence of aphthous stomatitis at 12.5 mg, po administered as single dose coadministered with 100 mg of ritonavir; type: organism-based
Homo sapiens [23] = assay: Toxicity in healthy human assessed as occurrence of aphthous stomatitis at 25 mg, po administered as single dose coadministered with 100 mg of ritonavir; type: organism-based
Homo sapiens [24] = assay: Toxicity in healthy human assessed as occurrence of aphthous stomatitis at 37.5 mg, po administered as single dose coadministered with 100 mg of ritonavir; type: organism-based
Homo sapiens [25] = assay: Toxicity in healthy human assessed as occurrence of aphthous stomatitis at 87.5 mg, po administered as single dose coadministered with 100 mg of ritonavir; type: organism-based
Homo sapiens [26] = assay: Toxicity in healthy human assessed as occurrence of diarrhea at 37.5 mg, po administered as single dose coadministered with 100 mg of ritonavir; type: organism-based
Homo sapiens [27] = assay: Toxicity in healthy human assessed as occurrence of diarrhea at 75 mg, po administered as single dose coadministered with 100 mg of ritonavir; type: organism-based
Homo sapiens [28] = assay: Toxicity in healthy human assessed as occurrence of diarrhea at 100 mg, po administered as single dose; type: organism-based
Homo sapiens [29] = assay: Toxicity in healthy human assessed as occurrence of maculopapular rash at 50 mg, po administered as single dose coadministered with 100 mg of ritonavir; type: organism-based
Homo sapiens [30] = assay: Toxicity in healthy human assessed as occurrence of maculopapular rash at 87.5 mg, po administered as single dose coadministered with 100 mg of ritonavir; type: organism-based
Homo sapiens [31] = assay: Toxicity in healthy human assessed as occurrence of abdominal pain at 5 mg, po administered as single dose relative to control; type: organism-based, Abdomen
Homo sapiens [32] = assay: Toxicity in healthy human assessed as occurrence of abdominal pain at 50 mg, po administered as single dose relative to control; type: organism-based, Abdomen
Homo sapiens [33] = assay: Toxicity in healthy human assessed as occurrence of fatigue at 1 mg, po administered as single dose relative to control; type: organism-based
Homo sapiens [34] = assay: Toxicity in healthy human assessed as occurrence of fatigue at 50 mg, po administered as single dose relative to control; type: organism-based
Homo sapiens [35] = assay: Toxicity in healthy human assessed as occurrence of fatigue at 100 mg, po administered as single dose relative to control; type: organism-based
Homo sapiens [36] = assay: Toxicity in healthy human assessed as occurrence of headache at 1 mg, po administered as single dose relative to control; type: organism-based
Homo sapiens [37] = assay: Toxicity in healthy human assessed as occurrence of nausea at 1 mg, po administered as single dose relative to control; type: organism-based

CCN1c2ncc(CCOc3cc[n+]([O-])c4ccccc34)cc2C(=O)N(C)c2cccnc21 [BILR 355]
Activity (Homo sapiens [1]): 0%
Activity (Homo sapiens [2]): 0%
Activity (Homo sapiens [3]): 0%
Activity (Homo sapiens [4]): 0%
Activity (Homo sapiens [5]): 0%
Activity (Homo sapiens [6]): 16.7%
Activity (Homo sapiens [7]): 0%
Activity (Homo sapiens [8]): 16.7%
Activity (Homo sapiens [9]): 0%
Activity (Homo sapiens [10]): 0%
Activity (Homo sapiens [11]): 0%
Activity (Homo sapiens [12]): 0%
Activity (Homo sapiens [13]): 0%
Activity (Homo sapiens [14]): 0%
Activity (Homo sapiens [15]): 0%
Activity (Homo sapiens [16]): 0%
Activity (Homo sapiens [17]): 16.7%
Activity (Homo sapiens [18]): 0%
Activity (Homo sapiens [19]): 0%
Activity (Homo sapiens [20]): 0%
Activity (Homo sapiens [21]): 14.3%
Activity (Homo sapiens [22]): 0%
Activity (Homo sapiens [23]): 16.7%
Activity (Homo sapiens [24]): 0%
Activity (Homo sapiens [25]): 0%
Activity (Homo sapiens [26]): 0%
Activity (Homo sapiens [27]): 0%
Activity (Homo sapiens [28]): 8.3%
Activity (Homo sapiens [29]): 0%
Activity (Homo sapiens [30]): 16.7%
Activity (Homo sapiens [31]): 0%
Activity (Homo sapiens [32]): 0%
Activity (Homo sapiens [33]): 16.7%
Activity (Homo sapiens [34]): 16.7%
Activity (Homo sapiens [35]): 20%
Activity (Homo sapiens [36]): 0%
Activity (Homo sapiens [37]): 0%
